Results are given in words; binding and its absence hold for the method and conditions named. Binding seen in cells or lysates may run through a third protein. Some entries that bind do so weakly or less than the wild type. Tags and fused reporters may be left off the sequences shown.
Experiments:
[1] = biological target: T1, recombinant human GST-STAMBPL1 (human) (UniProt Q96FJ0); assay: co-IP; only the target purified
T1 sequence: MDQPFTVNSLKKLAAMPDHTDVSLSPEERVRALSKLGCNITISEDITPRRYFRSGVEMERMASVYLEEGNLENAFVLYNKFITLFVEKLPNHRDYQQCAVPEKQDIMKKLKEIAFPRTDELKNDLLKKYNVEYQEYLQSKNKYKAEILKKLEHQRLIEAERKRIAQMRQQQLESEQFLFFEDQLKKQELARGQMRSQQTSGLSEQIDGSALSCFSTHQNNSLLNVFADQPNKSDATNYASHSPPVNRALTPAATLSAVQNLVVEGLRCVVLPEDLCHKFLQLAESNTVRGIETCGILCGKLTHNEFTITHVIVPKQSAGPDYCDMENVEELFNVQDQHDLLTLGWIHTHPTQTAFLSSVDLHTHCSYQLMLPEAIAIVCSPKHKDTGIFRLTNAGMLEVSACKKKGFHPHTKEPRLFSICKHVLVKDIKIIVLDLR

Chains of the proteins cited; added tags and fusions are not shown.
UniProt O15392: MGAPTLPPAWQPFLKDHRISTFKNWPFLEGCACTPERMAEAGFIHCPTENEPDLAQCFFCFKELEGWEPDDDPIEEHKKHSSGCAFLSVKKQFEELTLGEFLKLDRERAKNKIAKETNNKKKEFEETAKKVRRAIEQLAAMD
UniProt Q7L5N1: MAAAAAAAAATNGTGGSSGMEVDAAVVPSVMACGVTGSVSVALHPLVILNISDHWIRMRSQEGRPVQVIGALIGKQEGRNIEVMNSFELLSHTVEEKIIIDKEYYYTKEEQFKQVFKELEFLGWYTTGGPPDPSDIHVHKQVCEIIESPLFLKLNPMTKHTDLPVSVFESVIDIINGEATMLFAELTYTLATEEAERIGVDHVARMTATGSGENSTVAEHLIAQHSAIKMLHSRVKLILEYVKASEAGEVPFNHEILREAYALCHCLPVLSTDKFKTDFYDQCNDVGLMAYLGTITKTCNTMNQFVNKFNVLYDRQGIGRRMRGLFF
UniProt Q92905: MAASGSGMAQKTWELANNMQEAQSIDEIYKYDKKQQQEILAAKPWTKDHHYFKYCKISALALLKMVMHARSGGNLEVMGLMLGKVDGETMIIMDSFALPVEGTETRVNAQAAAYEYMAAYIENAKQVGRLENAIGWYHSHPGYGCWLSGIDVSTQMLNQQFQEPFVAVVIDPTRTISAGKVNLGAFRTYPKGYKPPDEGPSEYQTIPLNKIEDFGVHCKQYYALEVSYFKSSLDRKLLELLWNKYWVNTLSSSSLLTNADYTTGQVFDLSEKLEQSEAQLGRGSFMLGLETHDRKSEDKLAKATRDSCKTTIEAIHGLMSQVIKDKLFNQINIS

[2] = biological target: Survivin (human (endogenous in AGS)) (UniProt O15392); assay: co-IP; IP of endogenous STAMBPL1, AMSH or Survivin from AGS cell lysates with 1 μg specific antibody overnight at 4 °C, protein A/G magnetic beads, washed four times with RIPA buffer; immunoblot

| Molecule | binding [1] | binding [2] |
| --- | --- | --- |
| Flag-CSN6 (from UniProt Q7L5N1 1-327) | binds | – |
| Flag-CSN5 (from UniProt Q92905 1-334) | binds | – |
| STAM-binding protein like 1 (STAMBPL1) (enzyme, UniProt Q96FJ0 1-436) MDQPFTVNSLKKLAAMPDHTDVSLSPEERVRALSKLGCNITISEDITPRRYFRSGVEMERMASVYLEEGNLENAFVLYNKFITLFVEKLPNHRDYQQCAVPEKQDIMKKLKEIAFPRTDELKNDLLKKYNVEYQEYLQSKNKYKAEILKKLEHQRLIEAERKRIAQMRQQQLESEQFLFFEDQLKKQELARGQMRSQQTSGLSEQIDGSALSCFSTHQNNSLLNVFADQPNKSDATNYASHSPPVNRALTPAATLSAVQNLVVEGLRCVVLPEDLCHKFLQLAESNTVRGIETCGILCGKLTHNEFTITHVIVPKQSAGPDYCDMENVEELFNVQDQHDLLTLGWIHTHPTQTAFLSSVDLHTHCSYQLMLPEAIAIVCSPKHKDTGIFRLTNAGMLEVSACKKKGFHPHTKEPRLFSICKHVLVKDIKIIVLDLR | – | binds |
